Laboratory results: PubChem BioAssay AID1259254 (NCATS, 2017)

Assay: 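Genome-wide screen for genes that prevent DNA re-replication in cancer cells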 (primary screen)
System: human HCT116 colorectal cancer cells
Reagent: single siRNA against human genes
Time to read-out: 3 days
Measured: 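Imaged Hoechst DNA stain sorts each cell into a cycle phase by DNA amount; per plate, G2 fraction set to 0% for non-targeting and 100% for GMNN siRNA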
Direction: G2 robust z-score: higher = more G2 cells, more excess DNA replication
Hit rule: 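An siRNA counts as active if its G2 robust z-score lies at least 5 MADs above the screen median; here such calls match roughly 38% of GMNN control or more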
The deposit covers about 59,000 reagents; below is an unselected part. Over the whole deposit, about 1,550 (2.6%) are marked active. 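G2 share is only a proxy for re-replication; each gene was hit by three separate siRNAs, and active genes were retested.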 The numbers tell different reagents against one gene apart. Not all columns of the deposit are shown. The record does not give: the amount of reagent.

Gene | siRNA no. | G2 robust z-score | Outcome
BCL7C | 1 | -1.47 | inactive
BCL7C | 2 | 0.0255 | inactive
BCL7C | 3 | -0.17 | inactive
AK8 | 1 | -1.12 | inactive
AK8 | 2 | 0.217 | inactive
AK8 | 3 | -0.868 | inactive
FAM171B | 1 | -0.596 | inactive
FAM171B | 2 | 0.324 | inactive
FAM171B | 3 | 0.478 | inactive
PPP6R3 | 1 | 0.341 | inactive
PPP6R3 | 2 | -0.533 | inactive
PPP6R3 | 3 | 1.85 | inactive
SPDYE14 | 1 | 0.746 | inactive
SPDYE14 | 2 | 0.677 | inactive
SPDYE14 | 3 | -0.252 | inactive
XIRP1 | 1 | -0.131 | inactive
XIRP1 | 2 | 2.37 | inactive
XIRP1 | 3 | 0.329 | inactive
REXO1L8P | 1 | -0.517 | inactive
REXO1L8P | 2 | -0.385 | inactive
REXO1L8P | 3 | 0.0448 | inactive
TUBA4A | 1 | 1.24 | inactive
TUBA4A | 2 | 1.53 | inactive
TUBA4A | 3 | -0.273 | inactive
HDGFL1 | 1 | -0.137 | inactive
HDGFL1 | 2 | -0.621 | inactive
HDGFL1 | 3 | -1.1 | inactive
RBM44 | 1 | 0.099 | inactive
RBM44 | 2 | 10.1 | active
RBM44 | 3 | -0.796 | inactive
ADPRS | 1 | 0.593 | inactive
ADPRS | 2 | 0.848 | inactive
ADPRS | 3 | 2.94 | inactive
ESRRG | 1 | -0.505 | inactive
ESRRG | 2 | 1.09 | inactive
ESRRG | 3 | 0.269 | inactive
PIAS4 | 1 | -0.922 | inactive
PIAS4 | 2 | -0.795 | inactive
PIAS4 | 3 | -0.0449 | inactive
C1orf198 | 1 | -0.977 | inactive
C1orf198 | 2 | -0.275 | inactive
C1orf198 | 3 | -0.602 | inactive
ADH4 | 1 | -0.531 | inactive
ADH4 | 2 | 1.91 | inactive
ADH4 | 3 | -0.88 | inactive
LDAH | 1 | 0.777 | inactive
LDAH | 2 | 0.596 | inactive
LDAH | 3 | -0.445 | inactive
F8A1 | 1 | 0.653 | inactive
F8A1 | 2 | -0.0353 | inactive
F8A1 | 3 | 3.7 | inactive
NFATC4 | 1 | -0.254 | inactive
NFATC4 | 2 | -0.843 | inactive
NFATC4 | 3 | -0.0455 | inactive
PRF1 | 1 | 0.779 | inactive
PRF1 | 2 | -0.202 | inactive
PRF1 | 3 | 3.33 | inactive
WWP2 | 1 | -1.35 | inactive
WWP2 | 2 | -0.37 | inactive
WWP2 | 3 | -0.399 | inactive
SOD2 | 1 | -1 | inactive
SOD2 | 2 | -0.757 | inactive
SOD2 | 3 | 0.896 | inactive
TXLNA | 1 | 0.428 | inactive
TXLNA | 2 | -0.611 | inactive
TXLNA | 3 | -0.24 | inactive
PARN | 1 | 1.79 | inactive
PARN | 2 | 0.0666 | inactive
PARN | 3 | -0.658 | inactive

Active calls, of those listed so far:
Gene | siRNA no. | G2 robust z-score | Outcome
RBM44 | 2 | 10.1 | active
